Results as given in the supplement of paper PMC6078165.
Values are relative to the signal before dosing, not to a vehicle control; the signal also falls without drug.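 Labels refer to human fibroblasts, largely primary: uterine (C12385, HUF), lung (H6013), bone (Hs27A), adrenal (HADF), skin (WS1), plus mammary HMF and breast cancer-associated Hs343T. Cancer lines are basal-like or mesenchymal-like triple-negative breast cancer. The paper counts as hits responses shifting over 3x the replicate standard deviation. The tissue of the other fibroblasts is not given here.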

Test system: MDAMB231
Experiment: relative JC-1 red fluorescence (viability) vs pre-drug, coculture with fibroblast (fraction); higher = more viable cancer cells
Experimental: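 JC-1 labelled TNBC cells cocultured 1:1 (1,500 cells each) with CellTrace Violet stained primary or stromal fibroblasts in 384-well plates in FluoroBrite medium, treated with one of 42 anticancer drugs at 0.1, 1, 10 or 100 uM. JC-1 red fluorescence (mitochondrial integrity in cancer cells only) was read by plate reader every 8 h for 72 h. Values are normalised to each well's pre-drug value. The stock of one drug was tenfold lower, so its dose labels may be too high.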

Nc1ncn([C@@H]2O[C@H](CO)[C@@H](O)[C@H]2O)c(=O)n1 [Azacitidine]
relative JC-1 red fluorescence
Settings	8 h	16 h	24 h	32 h	40 h	48 h	56 h	64 h	72 h
0.1 µM, coculture fibroblast: C12385	0.78	0.707	0.782	0.668	0.628	0.625	0.6	0.634	0.627
0.1 µM, coculture fibroblast: H6013	0.864	0.8465	0.81	0.799	0.792	0.795	0.787	0.773	0.734
0.1 µM, coculture fibroblast: H6019	0.785	0.702	0.725	0.646	0.619	0.607	0.58	0.577	0.553
0.1 µM, coculture fibroblast: H6076	0.811	0.749	0.737	0.728	0.7193	0.703	0.7032	0.7033	0.717
0.1 µM, coculture fibroblast: H6231	0.867	0.797	0.753	0.713	0.685	0.66	0.623	0.615	0.604
0.1 µM, coculture fibroblast: HADF	0.838	0.809	0.7841	0.7614	0.757	0.753	0.731	0.743	0.708
0.1 µM, coculture fibroblast: HCFa	0.8774	0.845	0.8282	0.7842	0.7679	0.735	0.7098	0.678	0.6377
0.1 µM, coculture fibroblast: HCPF	0.904	0.824	0.763	0.73	0.6787	0.647	0.612	0.583	0.56329
0.1 µM, coculture fibroblast: HHSteC	0.907	0.885	0.864	0.816	0.806	0.7854	0.743	0.73	0.707
0.1 µM, coculture fibroblast: HMF	0.842	0.769	0.7401	0.701	0.666	0.6393	0.614	0.599	0.597
0.1 µM, coculture fibroblast: HPFa	0.9104	0.884	0.835	0.7878	0.7782	0.7453	0.6938	0.66342	0.61476
0.1 µM, coculture fibroblast: HUF	0.8068	0.717	0.759	0.629	0.576	0.57	0.545	0.559	0.558
0.1 µM, coculture fibroblast: Hs5	0.904	0.865	0.834	0.794	0.763	0.722	0.696	0.674	0.654
0.1 µM, coculture fibroblast: Hs27A	0.858	0.8325	0.8016	0.7849	0.7496	0.7273	0.7116	0.7013	0.6686
0.1 µM, coculture fibroblast: Hs343T	0.791	0.719	0.677	0.658	0.633	0.602	0.559	0.544	0.536
0.1 µM, coculture fibroblast: WS1	0.745	0.672	0.731	0.636	0.603	0.597	0.572	0.582	0.576
1 µM, coculture fibroblast: C12385	0.75	0.722	0.615	0.6178	0.549	0.514	0.475	0.4666	0.4452
1 µM, coculture fibroblast: H6013	0.885	0.837	0.83	0.815	0.78	0.752	0.7465	0.7214	0.68165
1 µM, coculture fibroblast: H6019	0.75677	0.705	0.651	0.6086	0.5473	0.516	0.475	0.451	0.413
1 µM, coculture fibroblast: H6076	0.842	0.7665	0.7497	0.722	0.6692	0.6335	0.609	0.594	0.584
1 µM, coculture fibroblast: H6231	0.897	0.813	0.761	0.73	0.671	0.631	0.601	0.581	0.551
1 µM, coculture fibroblast: HADF	0.857	0.789	0.756	0.721	0.683	0.639	0.628	0.616	0.573
1 µM, coculture fibroblast: HCFa	0.8657	0.7998	0.7673	0.729	0.679	0.623	0.609	0.58	0.532
1 µM, coculture fibroblast: HCPF	0.891	0.782	0.719	0.694	0.631	0.594	0.553	0.526	0.502
1 µM, coculture fibroblast: HHSteC	0.82	0.889	0.854	0.823	0.814	0.738	0.786	0.771	0.747
1 µM, coculture fibroblast: HMF	0.903	0.811	0.73	0.691	0.633	0.596	0.549	0.528	0.509
1 µM, coculture fibroblast: HPFa	0.9338	0.8782	0.8174	0.7708	0.7283	0.681	0.625	0.596	0.553
1 µM, coculture fibroblast: HUF	0.8176	0.715	0.669	0.5679	0.4949	0.4697	0.4173	0.39248	0.372
1 µM, coculture fibroblast: Hs5	0.839	0.753	0.723	0.692	0.655	0.616	0.58598	0.5636	0.547
1 µM, coculture fibroblast: Hs27A	0.8717	0.83	0.781	0.742	0.6886	0.625	0.63	0.615	0.564
1 µM, coculture fibroblast: Hs343T	0.867	0.739	0.669	0.625	0.567	0.513	0.46	0.4348	0.4017
1 µM, coculture fibroblast: WS1	0.729	0.658	0.5737	0.534	0.487	0.462	0.418	0.398	0.367
